Measured values taken from PMC12679573.
Results are given in words; binding and its absence hold for the method and conditions named. In cells and extracts the contact can be indirect. A result given as binding can be weak or reduced; the word gives no strength.

The chains behind the UniProt entries cited, without tags or fusion partners. Where a name states a change or a piece, a line headed by the entry shows the natural chain unless it says otherwise. Residues count along the entry.
UniProt Q60932: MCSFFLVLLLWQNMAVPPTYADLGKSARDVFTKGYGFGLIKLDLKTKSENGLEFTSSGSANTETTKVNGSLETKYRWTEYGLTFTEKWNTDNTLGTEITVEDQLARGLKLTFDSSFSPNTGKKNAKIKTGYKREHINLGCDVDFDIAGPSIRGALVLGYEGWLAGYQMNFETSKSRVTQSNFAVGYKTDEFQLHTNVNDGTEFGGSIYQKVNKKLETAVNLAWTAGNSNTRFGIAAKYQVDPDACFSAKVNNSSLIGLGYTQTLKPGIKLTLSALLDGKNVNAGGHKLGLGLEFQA
UniProt P38647, residues 47-679: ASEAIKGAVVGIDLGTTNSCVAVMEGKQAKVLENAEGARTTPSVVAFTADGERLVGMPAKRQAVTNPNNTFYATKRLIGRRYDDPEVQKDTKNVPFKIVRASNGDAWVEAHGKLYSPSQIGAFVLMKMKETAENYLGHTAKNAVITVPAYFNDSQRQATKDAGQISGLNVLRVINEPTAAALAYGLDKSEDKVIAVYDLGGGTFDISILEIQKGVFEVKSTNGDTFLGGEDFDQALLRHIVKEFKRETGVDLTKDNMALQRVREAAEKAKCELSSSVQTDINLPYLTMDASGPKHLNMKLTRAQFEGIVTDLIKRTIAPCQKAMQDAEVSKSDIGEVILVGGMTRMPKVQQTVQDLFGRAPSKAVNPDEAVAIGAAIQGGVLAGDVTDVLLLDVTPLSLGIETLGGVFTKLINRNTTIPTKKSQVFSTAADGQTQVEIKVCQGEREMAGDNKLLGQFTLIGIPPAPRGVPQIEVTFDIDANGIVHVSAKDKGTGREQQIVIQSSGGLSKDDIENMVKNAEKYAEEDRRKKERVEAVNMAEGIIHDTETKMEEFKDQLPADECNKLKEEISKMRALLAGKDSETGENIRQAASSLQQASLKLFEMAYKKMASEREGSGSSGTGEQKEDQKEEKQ
UniProt P11881: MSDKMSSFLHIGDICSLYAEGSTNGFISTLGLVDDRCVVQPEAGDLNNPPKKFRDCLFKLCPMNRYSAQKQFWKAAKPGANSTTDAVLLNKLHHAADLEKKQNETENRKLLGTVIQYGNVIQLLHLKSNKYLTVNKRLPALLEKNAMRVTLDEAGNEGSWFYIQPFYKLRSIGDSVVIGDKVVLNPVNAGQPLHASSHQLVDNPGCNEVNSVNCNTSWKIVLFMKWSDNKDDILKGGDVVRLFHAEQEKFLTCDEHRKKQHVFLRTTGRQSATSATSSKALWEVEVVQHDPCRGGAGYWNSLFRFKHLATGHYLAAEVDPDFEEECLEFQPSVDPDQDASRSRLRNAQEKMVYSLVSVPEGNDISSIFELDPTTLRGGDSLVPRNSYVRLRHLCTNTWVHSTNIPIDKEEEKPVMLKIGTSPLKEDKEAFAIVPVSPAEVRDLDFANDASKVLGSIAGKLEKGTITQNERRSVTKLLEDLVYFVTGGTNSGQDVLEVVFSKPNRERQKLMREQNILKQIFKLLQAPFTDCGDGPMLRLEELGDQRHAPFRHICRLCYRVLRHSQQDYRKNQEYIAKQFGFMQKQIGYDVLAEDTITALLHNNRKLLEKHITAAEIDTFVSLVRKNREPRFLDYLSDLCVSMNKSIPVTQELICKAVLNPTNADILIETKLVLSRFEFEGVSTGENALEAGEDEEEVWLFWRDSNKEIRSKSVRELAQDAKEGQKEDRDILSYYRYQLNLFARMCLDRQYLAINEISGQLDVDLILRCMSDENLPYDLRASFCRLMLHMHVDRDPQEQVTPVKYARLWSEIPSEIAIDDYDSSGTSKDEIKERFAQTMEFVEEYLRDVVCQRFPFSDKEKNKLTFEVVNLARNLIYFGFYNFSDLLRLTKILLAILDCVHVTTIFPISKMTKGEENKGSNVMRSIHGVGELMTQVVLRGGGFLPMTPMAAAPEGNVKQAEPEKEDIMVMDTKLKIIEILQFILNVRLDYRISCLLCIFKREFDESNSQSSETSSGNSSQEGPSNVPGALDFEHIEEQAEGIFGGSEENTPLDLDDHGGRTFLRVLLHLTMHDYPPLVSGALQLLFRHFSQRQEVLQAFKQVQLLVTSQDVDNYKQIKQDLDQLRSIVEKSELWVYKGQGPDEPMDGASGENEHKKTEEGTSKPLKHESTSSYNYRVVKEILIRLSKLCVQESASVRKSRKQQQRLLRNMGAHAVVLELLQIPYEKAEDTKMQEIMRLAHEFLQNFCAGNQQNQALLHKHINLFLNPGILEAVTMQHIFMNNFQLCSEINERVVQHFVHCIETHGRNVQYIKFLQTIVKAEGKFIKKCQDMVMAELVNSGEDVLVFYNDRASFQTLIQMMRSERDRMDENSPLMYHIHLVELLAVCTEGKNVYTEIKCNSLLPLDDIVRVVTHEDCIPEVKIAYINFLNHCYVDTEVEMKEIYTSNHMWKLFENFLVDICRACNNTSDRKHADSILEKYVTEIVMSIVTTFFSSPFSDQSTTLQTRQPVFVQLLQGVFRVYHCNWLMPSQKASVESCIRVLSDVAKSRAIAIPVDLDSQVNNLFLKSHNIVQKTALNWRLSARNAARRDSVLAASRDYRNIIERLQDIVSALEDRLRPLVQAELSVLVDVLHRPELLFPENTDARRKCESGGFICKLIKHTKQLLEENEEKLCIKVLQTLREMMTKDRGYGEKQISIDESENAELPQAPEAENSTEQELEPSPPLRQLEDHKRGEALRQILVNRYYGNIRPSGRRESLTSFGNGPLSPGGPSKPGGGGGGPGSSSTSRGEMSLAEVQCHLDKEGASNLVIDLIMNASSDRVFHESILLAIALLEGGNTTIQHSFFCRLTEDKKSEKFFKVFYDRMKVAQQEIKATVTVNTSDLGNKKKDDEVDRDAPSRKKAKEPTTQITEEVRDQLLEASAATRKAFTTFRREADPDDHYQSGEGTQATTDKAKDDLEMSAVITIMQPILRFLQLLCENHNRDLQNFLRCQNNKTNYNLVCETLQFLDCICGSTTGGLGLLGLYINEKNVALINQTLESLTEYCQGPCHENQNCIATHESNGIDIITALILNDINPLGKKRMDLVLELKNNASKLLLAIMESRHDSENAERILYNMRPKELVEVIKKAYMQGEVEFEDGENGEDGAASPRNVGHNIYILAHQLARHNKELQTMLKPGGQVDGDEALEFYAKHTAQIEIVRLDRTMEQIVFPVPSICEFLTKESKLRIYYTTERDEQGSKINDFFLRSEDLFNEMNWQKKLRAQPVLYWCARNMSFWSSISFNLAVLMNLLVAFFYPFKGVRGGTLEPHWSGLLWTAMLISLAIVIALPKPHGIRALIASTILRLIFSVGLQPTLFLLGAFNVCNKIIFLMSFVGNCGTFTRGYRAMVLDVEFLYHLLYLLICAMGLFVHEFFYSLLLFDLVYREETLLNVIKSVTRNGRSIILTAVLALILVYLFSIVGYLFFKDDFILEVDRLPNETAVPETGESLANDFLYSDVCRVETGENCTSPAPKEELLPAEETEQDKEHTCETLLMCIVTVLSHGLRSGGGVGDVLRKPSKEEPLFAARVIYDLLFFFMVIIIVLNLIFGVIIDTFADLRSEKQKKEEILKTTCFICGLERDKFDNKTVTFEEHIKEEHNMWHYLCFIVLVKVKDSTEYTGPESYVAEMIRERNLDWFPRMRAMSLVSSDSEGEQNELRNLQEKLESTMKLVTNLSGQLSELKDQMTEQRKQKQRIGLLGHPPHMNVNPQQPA

Experiments:
[1] = target: VDAC1 (mouse (endogenous in primary hepatocytes)) (UniProt Q60932); experiment: proximity ligation; Duolink in situ PLA on fixed, permeabilised primary hepatocytes of WT, hKO and hKI mice after PHx; primary antibodies to VDAC1, GRP75, IP3R1; confocal microscopy
[2] = target: GRP75 (mouse (endogenous in primary hepatocytes)) (UniProt P38647); experiment: as above

| Substance | binding [1] | binding [2] |
| --- | --- | --- |
| IP3R1 (from UniProt P11881 1-2749) (receptor) | binds | – |
| VDAC1 (from UniProt Q60932) | – | binds |
